Experimental data as given in paper PMC3117680.
These are yes or no findings as the source states them, for the method shown.

Target: human F-spondin FS domain (amino acids V191-K434) (human) (UniProt Q9HCB6)
Experiment: SEC; FPLC on Superdex 75 calibrated with six protein standards; 200 mM NaCl, 20 mM HEPES pH 7.8; principal peak at 22.7 kDa; both purified

binding: no binding
B1: human F-spondin FS domain (amino acids V191-K434) (domain or fragment, UniProt Q9HCB6 191-434)
chain: RSPWPGVTDKPILDCCACGTAKYRLTFYGNWSEKTHPKDYPRRANHWSAIIGGSHSKNYVLWEYGGYASEGVKQVAELGSPVKMEEEIRQQSDEVLTVIKAKAQWPAWQPLNVRAAPSAEFSVDRTRHLMSFLTMMGPSPDWNVGLSAEDLCTKECGWVQKVVQDLIPWDAGTDSGVTYESPNKPTIPQEKIRPLTSLDHPQSPFYDPEGGSITQVARVVIERIARKGEQCNIVPDNVDDIVADLAPEEKTG
modifications: N-linked glycans at N214 (not fully processed, Drosophila S2)
